Here are results for one substance from publication doi:10.1101/803932.

Chains of the proteins cited; added tags and fusions are not shown.
UniProt Q27368: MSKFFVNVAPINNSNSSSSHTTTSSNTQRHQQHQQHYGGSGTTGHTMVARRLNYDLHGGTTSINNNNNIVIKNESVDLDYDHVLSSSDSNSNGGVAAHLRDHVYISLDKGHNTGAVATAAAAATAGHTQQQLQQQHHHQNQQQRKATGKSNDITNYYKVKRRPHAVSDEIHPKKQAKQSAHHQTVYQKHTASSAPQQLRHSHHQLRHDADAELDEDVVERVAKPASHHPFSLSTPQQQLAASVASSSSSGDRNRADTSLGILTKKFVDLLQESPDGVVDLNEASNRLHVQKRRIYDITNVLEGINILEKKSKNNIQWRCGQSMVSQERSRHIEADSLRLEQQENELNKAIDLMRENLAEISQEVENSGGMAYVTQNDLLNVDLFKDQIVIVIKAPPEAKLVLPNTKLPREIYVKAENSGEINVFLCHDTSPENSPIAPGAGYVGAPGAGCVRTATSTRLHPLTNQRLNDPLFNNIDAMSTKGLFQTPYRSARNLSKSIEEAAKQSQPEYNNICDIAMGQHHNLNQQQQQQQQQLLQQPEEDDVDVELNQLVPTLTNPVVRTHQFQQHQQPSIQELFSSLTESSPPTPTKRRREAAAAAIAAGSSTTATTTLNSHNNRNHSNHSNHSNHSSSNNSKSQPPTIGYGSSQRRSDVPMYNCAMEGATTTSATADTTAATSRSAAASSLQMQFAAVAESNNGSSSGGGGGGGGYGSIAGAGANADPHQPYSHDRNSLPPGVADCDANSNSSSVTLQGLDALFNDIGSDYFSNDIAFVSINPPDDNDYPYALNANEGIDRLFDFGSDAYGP

These are yes or no findings as the source states them, for the method shown. In cells and extracts the contact can be indirect. Some entries that bind do so weakly or less than the wild type. Tags and fused reporters may be left off the sequences shown.

In the test the target is T1, GFP-BAF (barrier-to-autointegration factor, wild type) (Drosophila) (UniProt Q9VLU0).
T1 sequence: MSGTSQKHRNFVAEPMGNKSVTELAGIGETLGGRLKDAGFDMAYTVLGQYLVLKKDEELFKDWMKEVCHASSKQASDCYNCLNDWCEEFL
Put plainly: co-IP.

On to E2F1 (from UniProt Q27368 1-805), for which the binding entry is given as “binds”.
